Measurements from US20050276800A1 (MEDICAL RESEARCH COUNCIL, published 2005).
These are yes or no findings as the source states them, for the method shown.

Protein sequences, listed by entry. Tags and fused reporters are not part of them. Residues count along the entry.
UniProt P02769, residues 25-607: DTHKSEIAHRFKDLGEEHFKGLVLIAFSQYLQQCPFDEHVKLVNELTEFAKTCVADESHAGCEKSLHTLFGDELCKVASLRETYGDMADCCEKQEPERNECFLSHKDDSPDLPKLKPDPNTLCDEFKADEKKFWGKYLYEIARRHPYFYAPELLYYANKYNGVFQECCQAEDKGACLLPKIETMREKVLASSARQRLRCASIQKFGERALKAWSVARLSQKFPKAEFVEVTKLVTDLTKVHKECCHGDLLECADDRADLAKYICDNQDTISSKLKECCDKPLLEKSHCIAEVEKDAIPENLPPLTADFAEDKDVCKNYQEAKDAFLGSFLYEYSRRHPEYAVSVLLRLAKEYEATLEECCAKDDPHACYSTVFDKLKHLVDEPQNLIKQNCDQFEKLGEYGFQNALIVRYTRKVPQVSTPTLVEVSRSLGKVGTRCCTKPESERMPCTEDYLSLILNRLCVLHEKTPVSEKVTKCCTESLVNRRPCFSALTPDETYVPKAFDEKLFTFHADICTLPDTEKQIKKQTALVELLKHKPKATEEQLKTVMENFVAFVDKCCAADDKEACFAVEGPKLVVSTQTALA

Key:
BSA (bovine) = BSA (bovine) (UniProt P02769); assay: ELISA, coated BSA (30 mg/ml), purified scFv, HRP anti-polyhistidine detection
[1] = molecular target: β-galactosidase [β-galactosidase: P00722]; assay: mammalian two-hybrid luciferase assay in COS7 cells, scFv-VP16 prey with GAL4-DBD-lacZ bait
[2] = molecular target: β-galactosidase [β-galactosidase: P00722]; assay: yeast two-hybrid (His growth, β-gal); data not shown

B1: anti-RAS scFv I21 (scFv)
scFv: EVQLLESGGGLVQPGGSLRLSCAASGFTFSSYAMSWVRQAPGKGLEWVSTISYGGSNTNYADSVKARFTISRDNSKNTLYLQMNSLRAEDTAVYYCAKGNNAFDYWGQGTLVTVSSGGGGSGGGGSGGGGSTDIQMTQSPSSLSASVGDRVTITCRASQSISSYLNWYQQKPGKAPKLLIYNASALQSGVPSRFSGSGSGTDFTLTISSLQPEDFATYYCQQYTSTPRTFGQGTKVEIKR
notes: also called ICAb I21
In the case of B1, the binding (BSA (bovine)) is reported as “no binding (tested: 450 ng per well)”, the binding [1] is reported as “no binding” and the binding [2] is reported as “no binding”.
